# According to PubChem BioAssay AID743255 (National Center for Advancing Translational Sciences (NCATS), 2014):
# The chains behind the UniProt entries cited, without tags or fusion partners. Where a name states a change or a piece, a line headed by the entry shows the natural chain unless it says otherwise.
# UniProt O94782: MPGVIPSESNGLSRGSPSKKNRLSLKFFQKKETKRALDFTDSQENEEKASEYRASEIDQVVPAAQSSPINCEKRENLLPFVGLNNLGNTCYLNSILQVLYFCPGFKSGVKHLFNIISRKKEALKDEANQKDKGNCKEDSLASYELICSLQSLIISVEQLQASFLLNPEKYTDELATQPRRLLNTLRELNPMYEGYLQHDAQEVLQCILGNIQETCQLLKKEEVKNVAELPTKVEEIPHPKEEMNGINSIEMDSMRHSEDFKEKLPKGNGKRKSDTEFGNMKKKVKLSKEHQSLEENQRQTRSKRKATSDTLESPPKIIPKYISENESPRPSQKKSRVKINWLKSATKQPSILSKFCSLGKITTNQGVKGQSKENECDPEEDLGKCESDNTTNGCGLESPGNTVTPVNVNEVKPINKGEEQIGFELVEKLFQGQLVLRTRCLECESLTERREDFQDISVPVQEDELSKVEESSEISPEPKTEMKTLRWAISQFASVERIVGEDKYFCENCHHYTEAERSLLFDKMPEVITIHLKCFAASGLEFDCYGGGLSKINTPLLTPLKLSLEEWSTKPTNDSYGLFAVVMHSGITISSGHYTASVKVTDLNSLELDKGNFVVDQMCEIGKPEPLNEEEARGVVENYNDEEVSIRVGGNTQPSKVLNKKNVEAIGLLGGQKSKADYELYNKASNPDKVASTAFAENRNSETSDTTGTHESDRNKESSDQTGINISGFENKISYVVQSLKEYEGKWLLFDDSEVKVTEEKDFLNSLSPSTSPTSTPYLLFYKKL
# About 910 (0.23%) of roughly 390,000 compounds were called active. The shares of active, inactive and inconclusive entries below differ from those in the screen. Calls follow the shape of the dose curve; as a rule, active = well fitted inhibition curve with a large enough effect; inconclusive = small, poorly fitted or top-dose-only effect; inactive = no such curve, though single readings can be large or run the other way. Potencies of inconclusive entries are doubtful fits and often do not repeat.
# Target: Ubiquitin carboxyl-terminal hydrolase 1 (Homo sapiens) (UniProt O94782)
# Experiment: Inhibitors of USP1/UAF1: Primary Screen; also: nearly all actives have a fitted effect of over 60% in size
# Conditions: recombinant USP1/UAF1, Ub-Rhodamine cleavage fluorescence; series mostly up to 57.1 µM
# Procedure, shortened: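 USP1/UAF1 complex at 1 nM was preincubated with compound for 15 min at room temperature, then Ub-Rho substrate (150nM final) was added. Fluorescence (480/540 nm) was read kinetically, 6 reads every 60 seconds.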
# Potency is read from the fitted curve at half-maximal effect.
row,Structure (SMILES),Potency
1,CCOC(=O)C1=C(C)N(CCCC(=O)O)C(=O)NC1c1ccc(OC)cc1 (centres undefined),inactive
2,CN(C(=O)CCNC(=O)Cn1cnc2ccccc2c1=O)c1ccccc1F,"inconclusive: 3.98 µM [inhibitor, partial curve]"
3,CC1=Nc2ccc(C)cc2/C1=C/c1c(N)n2nc(CC(=O)N3CCOCC3)sc2nc1=O,"inconclusive: 39.8 µM [inhibitor, partial curve]"
4,COC(=O)c1ccc(N2NC(=O)/C(=C/c3cc(OC)c(O)c(OC)c3)C2=O)cc1,"inconclusive: 44.7 µM [inhibitor, partial curve, poor fit]"
5,Cc1ccccc1CS(=O)(=O)Cc1ccc(C(=O)NCCc2ccccc2)o1,"inconclusive: 355 µM [inhibitor, partial curve]"
6,CCOC(=O)c1ccc(Nc2c(-c3ccc(O)cc3)nc3nc[nH]n23)cc1,"inconclusive: 44.7 µM [inhibitor, partial curve, poor fit]"
7,CCCCC(CC)Cn1c(O)c(/C=C2\C=NN=C2c2ccccc2)sc1=S (centres undefined),inactive
8,COc1ccccc1CNC(=O)Cn1ncc2c(=O)oc3ccc(C)cc3c21,"inconclusive: 44.7 µM [inhibitor, partial curve, poor fit]"
9,Cc1ccc2cc(CCNC(=O)CC(C)(C)C)c(=O)[nH]c2c1C,"inconclusive: 0.355 µM [inhibitor, full curve, poor fit]"
10,Cc1cccc(NCc2ccc(N(C)C)cc2)n1,inactive
11,CCOC(=O)N1CCN(C2CC(=O)N(c3ccc(F)cc3)C2=O)CC1 (centres undefined),"inconclusive: 0.631 µM [inhibitor, full curve]"
12,COc1nc(-c2cccs2)cc(-c2ccc(C)cc2)c1C#N,"inconclusive: 50.1 µM [inhibitor, partial curve, poor fit]"
13,Cn1sc2ccccc2c1=O,inactive
14,Cc1cc2nc3ccc(=[N+](C)C)cc-3sc2cc1N,"inconclusive: 15.8 µM [inhibitor, partial curve]"
15,O=c1c2ccccc2n(Cc2ccc(F)cc2)c(=O)n1C1CCCC1,"inconclusive: 39.8 µM [inhibitor, single point]"
16,O=C(O)/C(=C\c1cn(-c2ccccc2)nc1-c1ccc(Cl)cc1)NC(=O)c1ccccc1,inactive
17,O=C(NC(O)C(=O)c1ccccc1)c1cccs1 (centres undefined),"inconclusive: 11.2 µM [inhibitor, partial curve, poor fit]"
18,COc1ccccc1-[n+]1c(C)cc(/C=C2\Sc3ccccc3N2C)cc1C,"inconclusive: 44.7 µM [inhibitor, partial curve, poor fit]"
19,Cn1c(=O)c2c(SCC(=O)NCc3ccco3)nc(-c3ccccc3Cl)nc2n(C)c1=O,inactive
